Test results taken from patent US20060122104A1, “Methods for in vitro expansion and transdifferentiation of human pancreatic acinar cells into insulin-producing cells” (priority 2002, published 2006).

Tested on: primary human pancreatic acinar cells, IP cells, putative insulin producing cells
Assay: 12K microarray mRNA expression at Day 3, Day 8 and Day 16 (Tables 6 and 7)
Assay type: cell-based
Conditions: for day3 (microarray mRNA expression signal): primary human pancreatic acinar cells; for day8 (microarray mRNA expression signal): IP cells; for day16 (microarray mRNA expression signal): putative insulin producing cells
[1] = mean of day3, day8 and day16 signals
[2] = ratio day8 to day3 (values fit log2)
[3] = ratio day16 to day3 (values fit log2)
[4] = 12K microarray mRNA expression signal of the gene, Day 3
[5] = 12K microarray mRNA expression signal of the gene, Day 8
[6] = 12K microarray mRNA expression signal of the gene, Day 16
[7] = expression class of the gene (one of 17 classes, clustering)
[8] = mRNA expression signal, 12K microarray, Day 3
[9] = mRNA expression signal, 12K microarray, Day 8
[10] = mRNA expression signal, 12K microarray, Day 16
[11] = mean of day3, day8, day16 signals
[12] = ratio day8 (intermediate) to day3 (acinar)
[13] = ratio day16 (islet-like) to day3 (acinar)

Work on 5-hydroxytryptamine (serotonin) yielded a day3 (mRNA expression signal, 12K microarray, Day 3 (primary human pancreatic acinar cells)) of 218.7666, a day8 (mRNA expression signal, 12K microarray, Day 8 (IP cells)) of 181 and a day16 (mRNA expression signal, 12K microarray, Day 16 (putative insulin producing cells)) of 107.8181. For the same substance, the allMean [1] was 169.3507, the classsName (name of the class of genes by clustering) was “Unchanged Low” and the rationIntto/ [2] was −2.70E−01. The ratioItoA [3] was −1.02E+00.

For Interleukin 10, the “day3 (microarray mRNA expression signal)” value (Day 3) was 174.8595, the “day8 (microarray mRNA expression signal)” value (Day 8) was 108 and the “day16 (microarray mRNA expression signal)” value (Day 16) was 113.5877. For the same substance, the rationIntto/ (day8 versus day3) was −7.00E−01, the ratioItoA (day16 versus day3) was −6.22E−01 and the allMean (mean of day3, day8, day16) was 132.021.

With annexin A1 the day3 [4] was 1114.486, the day8 [5] was 8240 and the day16 [6] was 8292.245. The classsName [7] was “On Acinar; Up Int = I”, the allMean [1] was 5883.787 and the rationIntto/ [2] was 2.89E+00. For the same substance, the ratioItoA [3] was 2.90E+00.

For glutamine-fructose-6-phosphate, the day3 (12K microarray mRNA expression signal of the gene at Day 3) was 869.494, the day8 (12K microarray mRNA expression signal of the gene at Day 8) was 600 and the day16 (12K microarray mRNA expression signal of the gene at Day 16) was 863.157. For the same substance, the classsName (expression class of the gene (classID 2 of 17 classes)) was “Unchanged Medium”, the allMean [1] was 777.6585 and the rationIntto/ (ratio day8 versus day3 (values fit log2)) was −5.34E−01. The ratioItoA (ratio day16 versus day3 (values fit log2)) was −1.06E−02.

interleukin 8 was tested, and the day3 [8] was 6902.736, the day8 [9] was 13300 and the day16 [10] was 1783.339. For the same substance, the allMean [11] was 7330.866, the rationIntto/ [12] was 9.47E−01 and the ratioItoA [13] was −1.95E+00.

With interleukin 11 the rationIntto/ (day8 versus day3, values fit log2 of the ratio) was −1.51E+00, the ratioItoA (day16 versus day3, values fit log2 of the ratio) was 1.99E−01 and the classsName (expression-pattern class (one of 17 classes; classID 1)) was “Unchanged Low”. It also gave a day3 (mRNA expression signal per gene, 12K microarray, Day 3 of culture) of 399.048, a day8 (mRNA expression signal per gene, 12K microarray, Day 8 of culture) of 140 and a day16 (mRNA expression signal per gene, 12K microarray, Day 16 of culture) of 458.1544. For the same substance, the allMean [1] was 332.3748.

For junction plakoglobin, the day3 [8] was 1969.949, the day8 [9] was 2610 and the day16 [10] was 912.3081. The allMean [11] was 1831.613, the rationIntto/ [12] was 4.07E−01 and the ratioItoA [13] was −1.11E+00.

phosphatidylinositol-4-phosphate was tested, and the rationIntto/ (day8 versus day3) was −5.16E−01 and the ratioItoA (day16 versus day3) was −1.04E−00.

Work on thrombospondin 1 yielded a day3 [8] of 79, a day8 [9] of 139 and a day16 [10] of 163.2593. For the same substance, the allMean [11] was 127.0819, the rationIntto/ [12] was 8.15E−01 and the ratioItoA [13] was 1.05E+00.

With transforming growth factor; alpha the day3 [4] was 215.9023, the day8 [5] was 160 and the day16 [6] was 59.63. The classsName [7] was “On A/Int; Off I”, the allMean [1] was 145.3108 and the rationIntto/ [2] was −4.29E−01. For the same substance, the ratioItoA [3] was −1.86E+00.

In the case of transforming growth factor; beta, the “day3 (microarray mRNA expression signal)” value (Day 3) is reported as 115.7567, the “day8 (microarray mRNA expression signal)” value (Day 8) is reported as 108 and the “day16 (microarray mRNA expression signal)” value (Day 16) is reported as 120.6724. For the same substance, the rationIntto/ (day8 versus day3) was −9.83E−02, the ratioItoA (day16 versus day3) was 6.00E−02 and the allMean (mean of day3, day8, day16) was 114.8546.
